Test results published in doi:10.1101/2020.05.08.084814.
Results are given in words; binding and its absence hold for the method and conditions named. Binding seen in cells or lysates may run through a third protein. Binding calls can cover weak binding; strength is not graded here.

How the values were obtained:
[1] = molecular target: T1, hnRNPAB (40LoVE) (Xenopus laevis (endogenous in oocytes)); test: co-IP
T1 sequence: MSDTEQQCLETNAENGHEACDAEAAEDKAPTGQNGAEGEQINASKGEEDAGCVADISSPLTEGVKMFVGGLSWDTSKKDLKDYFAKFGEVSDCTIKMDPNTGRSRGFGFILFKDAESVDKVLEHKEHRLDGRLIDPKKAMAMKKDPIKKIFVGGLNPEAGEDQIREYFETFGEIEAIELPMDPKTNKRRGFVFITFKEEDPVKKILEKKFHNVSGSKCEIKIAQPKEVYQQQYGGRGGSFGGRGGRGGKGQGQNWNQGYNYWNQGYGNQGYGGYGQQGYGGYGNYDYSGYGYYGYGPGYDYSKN

[2] = molecular target: T2, Stau1 (Staufen1) (Xenopus laevis (endogenous in oocytes)) (UniProt Q6GM35); test: co-IP
T2 sequence: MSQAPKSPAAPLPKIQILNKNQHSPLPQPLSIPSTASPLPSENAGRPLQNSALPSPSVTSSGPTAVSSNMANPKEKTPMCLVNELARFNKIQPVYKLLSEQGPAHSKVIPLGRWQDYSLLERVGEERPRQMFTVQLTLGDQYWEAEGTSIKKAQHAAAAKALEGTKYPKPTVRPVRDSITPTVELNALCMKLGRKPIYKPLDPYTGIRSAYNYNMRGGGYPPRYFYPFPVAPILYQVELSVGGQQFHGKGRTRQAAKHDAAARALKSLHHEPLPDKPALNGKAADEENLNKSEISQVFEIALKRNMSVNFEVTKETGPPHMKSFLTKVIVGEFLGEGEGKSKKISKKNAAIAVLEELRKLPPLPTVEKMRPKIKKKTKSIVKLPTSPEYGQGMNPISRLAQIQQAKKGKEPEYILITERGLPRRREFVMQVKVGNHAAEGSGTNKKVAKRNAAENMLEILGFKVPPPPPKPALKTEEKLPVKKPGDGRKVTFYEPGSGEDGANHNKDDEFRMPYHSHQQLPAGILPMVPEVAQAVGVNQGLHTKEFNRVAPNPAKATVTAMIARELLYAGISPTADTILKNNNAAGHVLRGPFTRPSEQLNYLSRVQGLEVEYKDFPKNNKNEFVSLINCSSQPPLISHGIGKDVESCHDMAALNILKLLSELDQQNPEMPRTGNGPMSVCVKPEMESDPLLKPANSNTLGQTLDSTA

Substance: Vera (Igf2bp3) (Xenopus laevis (endogenous in oocytes))
- binding [1]: binds
- binding [2]: binds
